Some of the results follow. Most entries show no effect beyond the scatter of the controls.

Amino acid sequences for entries named in this document (tags omitted). A change or cut given only in a name is not applied to a line headed by its entry.
UniProt Q5JSH3: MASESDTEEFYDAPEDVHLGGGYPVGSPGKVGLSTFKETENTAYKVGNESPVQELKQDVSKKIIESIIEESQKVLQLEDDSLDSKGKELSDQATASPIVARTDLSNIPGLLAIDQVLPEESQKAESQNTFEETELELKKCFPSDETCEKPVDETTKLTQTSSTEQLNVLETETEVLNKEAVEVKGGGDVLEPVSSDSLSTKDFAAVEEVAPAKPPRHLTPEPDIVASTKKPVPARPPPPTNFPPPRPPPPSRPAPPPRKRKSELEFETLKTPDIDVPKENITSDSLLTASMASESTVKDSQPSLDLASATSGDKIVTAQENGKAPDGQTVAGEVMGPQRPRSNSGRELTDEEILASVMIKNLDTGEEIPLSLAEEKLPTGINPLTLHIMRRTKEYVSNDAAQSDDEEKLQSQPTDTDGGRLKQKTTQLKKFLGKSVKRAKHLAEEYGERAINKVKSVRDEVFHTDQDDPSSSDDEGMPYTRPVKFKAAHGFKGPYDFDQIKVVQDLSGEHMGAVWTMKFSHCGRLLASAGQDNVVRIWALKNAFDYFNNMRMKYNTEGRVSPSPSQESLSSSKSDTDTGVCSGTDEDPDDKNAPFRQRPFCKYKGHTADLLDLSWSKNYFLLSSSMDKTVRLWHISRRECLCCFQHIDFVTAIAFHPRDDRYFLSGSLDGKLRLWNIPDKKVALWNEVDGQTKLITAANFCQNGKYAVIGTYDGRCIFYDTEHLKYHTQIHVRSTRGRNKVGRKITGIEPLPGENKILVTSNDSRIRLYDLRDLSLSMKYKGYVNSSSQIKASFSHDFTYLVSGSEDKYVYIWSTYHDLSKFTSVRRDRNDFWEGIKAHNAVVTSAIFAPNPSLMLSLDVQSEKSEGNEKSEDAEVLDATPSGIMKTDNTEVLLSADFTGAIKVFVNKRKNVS
UniProt Q4G0T1: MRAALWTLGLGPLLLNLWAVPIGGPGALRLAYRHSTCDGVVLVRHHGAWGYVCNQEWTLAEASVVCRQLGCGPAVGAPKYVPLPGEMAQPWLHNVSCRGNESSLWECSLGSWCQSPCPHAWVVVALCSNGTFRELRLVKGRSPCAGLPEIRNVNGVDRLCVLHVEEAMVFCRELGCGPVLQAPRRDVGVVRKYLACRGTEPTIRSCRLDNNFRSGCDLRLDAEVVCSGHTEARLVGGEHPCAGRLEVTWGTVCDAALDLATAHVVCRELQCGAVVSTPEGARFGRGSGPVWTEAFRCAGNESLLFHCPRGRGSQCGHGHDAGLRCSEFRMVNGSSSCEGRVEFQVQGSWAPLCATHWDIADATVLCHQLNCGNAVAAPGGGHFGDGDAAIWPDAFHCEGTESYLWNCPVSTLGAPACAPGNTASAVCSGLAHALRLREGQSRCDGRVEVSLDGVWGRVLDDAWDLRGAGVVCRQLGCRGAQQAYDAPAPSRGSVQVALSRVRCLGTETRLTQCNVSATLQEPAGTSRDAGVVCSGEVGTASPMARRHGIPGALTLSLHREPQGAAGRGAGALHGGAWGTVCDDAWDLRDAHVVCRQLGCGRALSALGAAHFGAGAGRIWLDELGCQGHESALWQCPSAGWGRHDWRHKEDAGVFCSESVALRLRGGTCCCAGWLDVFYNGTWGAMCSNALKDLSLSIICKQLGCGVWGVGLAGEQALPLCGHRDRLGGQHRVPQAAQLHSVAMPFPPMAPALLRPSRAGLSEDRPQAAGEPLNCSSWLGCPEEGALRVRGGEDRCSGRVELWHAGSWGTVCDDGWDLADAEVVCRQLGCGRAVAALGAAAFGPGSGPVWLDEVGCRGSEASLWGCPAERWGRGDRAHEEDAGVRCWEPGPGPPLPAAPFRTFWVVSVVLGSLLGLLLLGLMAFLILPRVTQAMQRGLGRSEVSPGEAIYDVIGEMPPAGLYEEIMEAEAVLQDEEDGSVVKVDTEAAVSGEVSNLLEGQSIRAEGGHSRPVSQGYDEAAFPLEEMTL
UniProt Q5JXC2: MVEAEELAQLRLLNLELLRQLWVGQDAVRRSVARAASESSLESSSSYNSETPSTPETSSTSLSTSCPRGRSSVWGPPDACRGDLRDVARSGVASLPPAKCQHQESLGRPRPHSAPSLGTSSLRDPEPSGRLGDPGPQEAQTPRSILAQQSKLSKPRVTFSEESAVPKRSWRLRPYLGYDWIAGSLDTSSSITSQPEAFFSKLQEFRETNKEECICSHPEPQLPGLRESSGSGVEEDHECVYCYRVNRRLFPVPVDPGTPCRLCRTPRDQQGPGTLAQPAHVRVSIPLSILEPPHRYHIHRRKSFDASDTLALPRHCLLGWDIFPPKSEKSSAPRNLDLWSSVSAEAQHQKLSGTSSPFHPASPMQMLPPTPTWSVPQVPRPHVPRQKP
UniProt Q5T6V5: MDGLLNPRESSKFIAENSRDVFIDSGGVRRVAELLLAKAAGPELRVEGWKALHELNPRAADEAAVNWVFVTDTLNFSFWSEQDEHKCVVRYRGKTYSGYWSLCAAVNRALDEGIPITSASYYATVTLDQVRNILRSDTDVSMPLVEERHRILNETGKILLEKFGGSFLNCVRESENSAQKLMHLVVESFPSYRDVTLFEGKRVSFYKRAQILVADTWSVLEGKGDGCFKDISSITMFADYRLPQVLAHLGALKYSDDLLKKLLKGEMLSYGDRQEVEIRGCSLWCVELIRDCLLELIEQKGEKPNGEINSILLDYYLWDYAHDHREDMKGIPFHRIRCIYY
UniProt Q5JTV8: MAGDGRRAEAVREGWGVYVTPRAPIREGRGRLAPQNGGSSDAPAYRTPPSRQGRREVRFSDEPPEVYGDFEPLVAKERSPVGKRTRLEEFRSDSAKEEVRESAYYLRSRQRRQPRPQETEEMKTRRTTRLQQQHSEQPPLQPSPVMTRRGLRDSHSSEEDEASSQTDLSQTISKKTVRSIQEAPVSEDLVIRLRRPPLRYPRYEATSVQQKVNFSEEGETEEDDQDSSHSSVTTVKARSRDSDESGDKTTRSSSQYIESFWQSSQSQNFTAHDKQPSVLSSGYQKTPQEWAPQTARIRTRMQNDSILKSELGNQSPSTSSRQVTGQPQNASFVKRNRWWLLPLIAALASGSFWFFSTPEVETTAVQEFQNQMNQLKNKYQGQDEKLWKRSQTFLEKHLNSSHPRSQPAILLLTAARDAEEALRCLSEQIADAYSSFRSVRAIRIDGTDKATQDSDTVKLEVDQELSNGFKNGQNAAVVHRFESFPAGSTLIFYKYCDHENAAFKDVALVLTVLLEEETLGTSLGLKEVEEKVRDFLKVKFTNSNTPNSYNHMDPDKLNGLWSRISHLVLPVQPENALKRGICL
UniProt Q504Q3: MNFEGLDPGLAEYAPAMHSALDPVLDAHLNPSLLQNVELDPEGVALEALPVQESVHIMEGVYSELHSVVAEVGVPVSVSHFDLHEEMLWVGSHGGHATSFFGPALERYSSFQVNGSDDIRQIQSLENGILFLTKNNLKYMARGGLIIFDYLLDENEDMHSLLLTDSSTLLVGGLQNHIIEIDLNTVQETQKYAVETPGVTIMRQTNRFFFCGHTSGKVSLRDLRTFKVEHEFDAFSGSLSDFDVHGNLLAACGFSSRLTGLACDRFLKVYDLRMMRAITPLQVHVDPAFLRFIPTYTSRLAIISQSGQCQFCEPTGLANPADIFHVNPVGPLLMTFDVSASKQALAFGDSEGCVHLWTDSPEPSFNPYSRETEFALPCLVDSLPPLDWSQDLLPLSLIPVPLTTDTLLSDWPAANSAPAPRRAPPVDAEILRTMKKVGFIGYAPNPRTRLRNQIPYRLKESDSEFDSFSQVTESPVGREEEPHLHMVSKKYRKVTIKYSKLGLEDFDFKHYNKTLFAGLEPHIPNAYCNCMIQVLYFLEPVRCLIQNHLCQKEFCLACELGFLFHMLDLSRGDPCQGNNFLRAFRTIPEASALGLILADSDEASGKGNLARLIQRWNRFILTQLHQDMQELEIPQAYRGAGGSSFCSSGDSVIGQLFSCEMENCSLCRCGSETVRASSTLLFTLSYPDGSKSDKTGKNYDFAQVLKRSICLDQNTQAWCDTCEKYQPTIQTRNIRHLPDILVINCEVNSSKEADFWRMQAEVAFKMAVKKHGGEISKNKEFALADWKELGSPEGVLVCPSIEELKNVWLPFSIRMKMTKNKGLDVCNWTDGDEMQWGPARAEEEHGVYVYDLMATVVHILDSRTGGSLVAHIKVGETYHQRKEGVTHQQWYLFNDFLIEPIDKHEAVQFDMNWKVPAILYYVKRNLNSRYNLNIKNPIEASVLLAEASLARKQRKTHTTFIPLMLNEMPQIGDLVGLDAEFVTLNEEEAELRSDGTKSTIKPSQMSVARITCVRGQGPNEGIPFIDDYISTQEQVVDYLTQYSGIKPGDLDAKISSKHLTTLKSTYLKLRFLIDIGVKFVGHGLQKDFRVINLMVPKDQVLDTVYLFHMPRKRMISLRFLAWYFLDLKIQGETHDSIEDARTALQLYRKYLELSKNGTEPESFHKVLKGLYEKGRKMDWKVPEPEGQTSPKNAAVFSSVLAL
UniProt Q5JU69: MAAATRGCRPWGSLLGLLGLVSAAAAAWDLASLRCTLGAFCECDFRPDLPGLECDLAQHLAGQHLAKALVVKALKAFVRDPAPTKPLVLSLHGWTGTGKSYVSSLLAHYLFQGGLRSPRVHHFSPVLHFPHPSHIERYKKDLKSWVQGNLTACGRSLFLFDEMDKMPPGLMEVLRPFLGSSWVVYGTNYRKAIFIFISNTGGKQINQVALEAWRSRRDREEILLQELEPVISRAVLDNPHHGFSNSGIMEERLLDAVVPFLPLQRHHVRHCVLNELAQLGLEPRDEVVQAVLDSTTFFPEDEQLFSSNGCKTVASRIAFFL
UniProt Q5BKU9: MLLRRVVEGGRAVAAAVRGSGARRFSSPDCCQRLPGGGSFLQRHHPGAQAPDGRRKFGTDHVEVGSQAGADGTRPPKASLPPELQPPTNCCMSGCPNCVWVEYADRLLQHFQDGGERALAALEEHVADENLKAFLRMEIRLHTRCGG
UniProt Q4V328: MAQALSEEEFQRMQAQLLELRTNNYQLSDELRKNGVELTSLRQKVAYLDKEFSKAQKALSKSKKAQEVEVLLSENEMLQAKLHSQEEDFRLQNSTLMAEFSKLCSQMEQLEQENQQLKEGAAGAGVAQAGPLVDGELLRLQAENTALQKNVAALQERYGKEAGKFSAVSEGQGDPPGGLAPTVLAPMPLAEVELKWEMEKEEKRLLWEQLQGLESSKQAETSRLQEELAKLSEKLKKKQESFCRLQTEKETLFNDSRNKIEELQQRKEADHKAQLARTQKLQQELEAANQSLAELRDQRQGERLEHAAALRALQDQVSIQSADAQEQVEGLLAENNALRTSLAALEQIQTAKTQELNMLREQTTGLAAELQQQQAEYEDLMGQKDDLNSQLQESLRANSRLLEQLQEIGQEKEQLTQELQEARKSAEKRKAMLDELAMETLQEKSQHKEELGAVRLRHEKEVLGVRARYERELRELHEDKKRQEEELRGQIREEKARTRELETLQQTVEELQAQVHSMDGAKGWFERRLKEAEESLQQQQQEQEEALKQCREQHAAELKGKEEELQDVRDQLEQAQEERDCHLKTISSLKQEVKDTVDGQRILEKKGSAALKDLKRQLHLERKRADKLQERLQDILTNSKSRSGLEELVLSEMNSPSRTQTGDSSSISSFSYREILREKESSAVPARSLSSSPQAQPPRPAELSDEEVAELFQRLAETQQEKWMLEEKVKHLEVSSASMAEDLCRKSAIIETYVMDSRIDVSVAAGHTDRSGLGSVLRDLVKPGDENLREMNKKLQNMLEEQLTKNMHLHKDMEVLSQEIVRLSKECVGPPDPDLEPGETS
UniProt Q56UQ5: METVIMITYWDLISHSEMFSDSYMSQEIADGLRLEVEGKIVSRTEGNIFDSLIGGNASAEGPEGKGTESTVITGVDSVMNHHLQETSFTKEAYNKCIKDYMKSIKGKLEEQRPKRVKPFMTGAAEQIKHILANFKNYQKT
UniProt Q5T9A4: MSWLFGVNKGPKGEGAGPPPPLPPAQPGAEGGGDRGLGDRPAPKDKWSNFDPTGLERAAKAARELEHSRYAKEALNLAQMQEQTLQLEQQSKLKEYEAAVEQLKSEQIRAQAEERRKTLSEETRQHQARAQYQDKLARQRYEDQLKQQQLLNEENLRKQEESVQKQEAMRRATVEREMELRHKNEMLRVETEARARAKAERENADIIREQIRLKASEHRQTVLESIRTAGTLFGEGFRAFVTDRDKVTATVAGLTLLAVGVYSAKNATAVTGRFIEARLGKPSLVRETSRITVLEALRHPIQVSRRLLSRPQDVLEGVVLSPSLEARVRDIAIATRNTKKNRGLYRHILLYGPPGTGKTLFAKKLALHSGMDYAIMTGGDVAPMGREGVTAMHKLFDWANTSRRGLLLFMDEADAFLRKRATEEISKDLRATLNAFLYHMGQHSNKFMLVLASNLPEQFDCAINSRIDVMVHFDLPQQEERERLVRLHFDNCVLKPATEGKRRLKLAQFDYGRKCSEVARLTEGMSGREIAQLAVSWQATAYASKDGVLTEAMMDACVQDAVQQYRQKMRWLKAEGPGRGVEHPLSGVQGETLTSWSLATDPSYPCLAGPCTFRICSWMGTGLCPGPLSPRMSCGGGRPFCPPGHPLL

Compound in this test: CN[C@@H]1C[C@H]2O[C@@](C)([C@@H]1OC)n1c3ccccc3c3c4c(c5c6ccccc6n2c5c31)C(=O)NC4 [staurosporine]
The test can be described thus: log2 fold change of tryptic peptide abundance, ligand vs vehicle (limited proteolysis) (log2 ratio); higher = more trypsin-susceptible (destabilized). To be noted: ligand concentration: 20 uM; sample: K562 cleared lysate; digestion: 4 min, 22 C (HT-PELSA RT4min, Orbitrap Astral).
“YOD1 (peptide sequence: TNQEYCDWIKR, peptide start residue: 205) (UniProt Q5VVQ6)”: the log2 fold change is 0.555.

In the case of “SAMD4B (peptide sequence: MGLLSPSGIGGVSPR, peptide start residue: 588) (UniProt Q5PRF9)”, the log2 fold change was -0.764.

Turning to “UniProt Q5TEC6 (peptide sequence: STELLIRKLPFQR, peptide start residue: 58)”, the log2 fold change is 1.26.

Regarding “WDR44 (peptide sequence: AAHGFKGPYDFDQIK, peptide start residue: 487) (UniProt Q5JSH3)”, the log2 fold change is -0.724.

As to “ZNF326 (peptide sequence: NYDAFGGPSTGR, peptide start residue: 189) (UniProt Q5BKZ1)”, the log2 fold change was -0.513.

Consider “NA (peptide sequence: GAQQAYDAPAPSR, peptide start residue: 479) (UniProt Q4G0T1)”, for which the log2 fold change stood at 0.67.

For “HP1BP3 (peptide sequence: TCSTTALK, peptide start residue: 358) (UniProt Q5SSJ5)”, the log2 fold change is 0.29.

Consider “UniProt Q5VTU8 (peptide sequence: QAGLSYIR, peptide start residue: 7)”, for which the log2 fold change is 0.099.

On to “SNAPC4 (peptide sequence: DSMQLIYR, peptide start residue: 383) (UniProt Q5SXM2)”, for which the log2 fold change is 0.332.

As for “MIIP (peptide sequence: LLNLELLR, peptide start residue: 12) (UniProt Q5JXC2)”, the log2 fold change is -0.0991.

For “UniProt Q5T2W1 (peptide sequence: GLPGSFIKEVQK, peptide start residue: 280)”, the log2 fold change was found to be 0.0475.

For the target “RABGAP1L (peptide sequence: DTGGDGQESLYK, peptide start residue: 594) (UniProt Q5R372)”, the log2 fold change was -0.6.

“TAF1B (peptide sequence: NSLYWLSTQK, peptide start residue: 509) (UniProt Q53T94)”: the log2 fold change is 0.044.

For “RRP12 (peptide sequence: LYSTIRPYLESK, peptide start residue: 772) (UniProt Q5JTH9)”, the log2 fold change came out at 0.288.

In the case of “C9orf64 (peptide sequence: ALHELNPR, peptide start residue: 51) (UniProt Q5T6V5)”, the log2 fold change was found to be 0.524.

Turning to “TOR1AIP1 (peptide sequence: SIQEAPVSEDLVIR, peptide start residue: 179) (UniProt Q5JTV8)”, the log2 fold change is -0.626.

Consider “UniProt Q5SVQ8 (peptide sequence: AADLAFLEK, peptide start residue: 851)”, for which the log2 fold change was -0.0312.

“PAN2 (peptide sequence: IQGETHDSIEDAR, peptide start residue: 1129) (UniProt Q504Q3)”: the log2 fold change was -1.12.

Take “PDCD4 (peptide sequence: ATVLLSMSK, peptide start residue: 298) (UniProt Q53EL6)”: the log2 fold change is -0.0916.

As for “UniProt Q5SRN2 (peptide sequence: KSCSKIQILK, peptide start residue: 226)”, the log2 fold change was found to be 0.13.

For the target “ZMYM1 (peptide sequence: TQENELK, peptide start residue: 42) (UniProt Q5SVZ6)”, the log2 fold change was -0.245.

On to “UniProt Q5T0U0 (peptide sequence: SLHSENVK, peptide start residue: 99)”, for which the log2 fold change amounted to 0.0891.

“TMEM63B (peptide sequence: LALVTDADR, peptide start residue: 72) (UniProt Q5T3F8)”: the log2 fold change is -0.614.

As for “CEP162 (peptide sequence: KNEERMFK, peptide start residue: 740) (UniProt Q5TB80)”, the log2 fold change is 0.25.

As to “TBCEL (peptide sequence: SFMQVLCEK, peptide start residue: 8) (UniProt Q5QJ74)”, the log2 fold change was 0.397.

Regarding “RBM26 (peptide sequence: ETQIFVEKLFDAVNTK, peptide start residue: 64) (UniProt Q5T8P6)”, the log2 fold change was 0.724.

Turning to “TOR2A (peptide sequence: DREEILLQELEPVISR, peptide start residue: 218) (UniProt Q5JU69)”, the log2 fold change turned out to be 0.309.

As to “C2CD3 (peptide sequence: ISQSTALAR, peptide start residue: 477) (UniProt Q4AC94)”, the log2 fold change was 0.967.

For “FASTKD1 (peptide sequence: IALEFLDSK, peptide start residue: 777) (UniProt Q53R41)”, the log2 fold change was -0.239.

Take “COBLL1 (peptide sequence: SVHAAPNPAPK, peptide start residue: 887) (UniProt Q53SF7)”: the log2 fold change was 0.503.

For the target “OXLD1 (peptide sequence: LLQHFQDGGER, peptide start residue: 107) (UniProt Q5BKU9)”, the log2 fold change turned out to be 0.54.

Consider “GRIPAP1 (peptide sequence: TQELNMLR, peptide start residue: 353) (UniProt Q4V328)”, for which the log2 fold change is 0.295.

As for “UniProt Q5VY09 (peptide sequence: NLLVSLVLR, peptide start residue: 33)”, the log2 fold change worked out at 0.094.

Regarding “UniProt Q56UQ5 (peptide sequence: VKPFMTGAAEQIK, peptide start residue: 111)”, the log2 fold change was 0.259.

As for “ARHGEF16 (peptide sequence: LQALAEEPSQPHTR, peptide start residue: 177) (UniProt Q5VV41)”, the log2 fold change is -0.229.

On to “ATAD3B (peptide sequence: LKEYEAAVEQLK, peptide start residue: 93) (UniProt Q5T9A4)”, for which the log2 fold change is 0.292.

Take “DALRD3 (peptide sequence: TLSPGILGRLCLK, peptide start residue: 207) (UniProt Q5D0E6)”: the log2 fold change is 0.426.

Source of the values: the supplement of paper PMC12819154, “High-throughput peptide-centric local stability assay extends protein–ligand identification to membrane proteins, tissues and bacteria” (Nature Structural & Molecular Biology, 2025).
